These results are taken from PubChem BioAssay AID2685 (National Center for Advancing Translational Sciences (NCATS), 2010).

Each structure is given as a SMILES string. Some of the results follow. Further columns of the screen follow, without active or inactive calls. The list favours compounds with an active or inconclusive main result. Potencies come from curve fits of mixed quality, noted in brackets.

This test is described as follows: qHTS Assay for Lipid Storage Modulators in Drosophila S3 Cells.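 On cell number change: cells counted by Cell Tracker Red CMTPX staining in the red channel.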 As to conditions: BODIPY lipid droplet fluorescence, 18-24 h; for cell number change: measured here: cell count max response, cells fed with added oleic acid. The method in brief:
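Laser-scanning cytometry quantifies lipid droplet accumulation (500–530 nm total intensity; droplet/cell object ratio) in oleic acid-fed (400 uM added) Drosophila S3 cells treated with a concentration series. 20 uM Triacsin C defined 100% inhibition.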
Background: In qHTS, concentration-response curves come from the screen itself.

The mark [1] stands for this setting: measured here: cell number channel AC50, cells fed with added oleic acid.
The mark [2] stands for this setting: measured here: lipid fluorescence (Fed channel) AC50, cells fed with added oleic acid.

As for `COc1cc(C(=O)NC(=S)NNC(=O)c2cnccn2)cc(OC)c1OC`, the cell number change is -1.6%. Besides, the AC50 (as a rule, the concentration giving half of the maximal activity seen) under setting [1] is 0.00461 µM [falling, full curve, poor fit]. Under setting [2], the half-maximal activity concentration (AC50) was 11.6 µM [falling, partial curve, poor fit].
For `COc1ccccc1Nc1nc(-c2sc(NC(=O)c3ccccc3)nc2C)cs1`, the cell number change came to 67.5%. Further, the AC50 under setting [1] was 23.1 µM [rising, partial curve].
For `O=C(NCc1ccccc1)C(c1cccnc1)N(C(=O)c1ccccn1)c1ccc(F)cc1` (stereo not given), the cell number change was determined as 30.4%. In addition, the concentration at half-maximal activity (AC50) under setting [1] was 7.31 µM [rising, full curve, poor fit]. The AC50 under setting [2] was 0.13 µM [rising, full curve, poor fit].
Regarding `Cc1ccc(Cl)cc1NS(=O)(=O)c1ccc(-n2cccn2)cc1`, the cell number change is 4.28%. Moreover, the AC50 under setting [2] is 7.31 µM [rising, partial curve, poor fit].
In the case of `COc1ccc(N2CCN(C(=O)c3[nH]c4ccc(OC)cc4c3C)CC2)cc1`, the cell number change worked out at 7.09%.
For `COc1ccccc1N(Cc1ccccc1)S(=O)(=O)c1cccc(C(=O)Nc2ccccn2)c1`, the cell number change is 43.3%. The AC50 under setting [1] is 13 µM [rising, partial curve, poor fit].
Turning to `CO/N=C/NC(=O)N1OC[C@@H]2COc3ccc4ccccc4c3[C@@H]21`, the AC50 under setting [2] was 0.461 µM [rising, full curve, poor fit].
For the molecule `O=C(C1Cc2ccccc2CN1S(=O)(=O)c1cccs1)N1CCCCC1` (stereo not given), the cell number change is -3.17%.
Consider `Cc1cccc(C)c1Nc1nnc(SCC(=O)Nc2ncc(C(F)(F)F)cc2Cl)s1`, for which the cell number change stood at 23.1%. The AC50 under setting [2] was 18.4 µM [rising, single point].
With `COc1ccc(C2=CC(=O)CC(C)(C)C2)cc1`, the cell number change was -9.15%. In addition, under setting [2], the AC50 is 0.517 µM [falling, single point].
Turning to `Fc1ccc(CSc2nncn2NC/C=C/c2ccccc2)cc1`, the AC50 by setting is: under setting [1], 2.59 µM [rising, single point]; under setting [2], 0.651 µM [rising, full curve, poor fit].
As for `CN1C(=O)/C(=C/c2ccccc2F)Sc2ccc(C(=O)N3CCCC3)cc21`, the cell number change was -23.4%. The AC50 under setting [2] was 6.51 µM [falling, full curve].
As to `CN1C(=O)N(CN2CCCCC2)C2C1N(C)C(=O)N2CN1CCCCC1` (stereo not given), the cell number change is -105%. In addition, under setting [1], the AC50 was 0.291 µM [falling, full curve]. For the same molecule, the AC50 under setting [2] was 23.1 µM [falling, single point].
`CC(=O)NCc1cc(-c2nn(C)c(=O)c3ccccc23)ccc1C`: the AC50 under setting [2] was 29.1 µM [falling, single point].
In the case of `COC(=O)c1c(NC(=O)C2COc3ccccc3O2)sc2c1CCN(C(C)=O)C2` (stereo not given), the cell number change came out at 25.3%. Further, the AC50 under setting [2] was 1.03 µM [rising, partial curve].
`Cc1cc(=O)[nH]c2c(C)c(Cl)ccc12`: the cell number change was found to be 10.4%. In addition, the AC50 under setting [2] was 0.082 µM [rising, full curve, poor fit].
Take `Cn1ncc(Cl)c1C(=O)NC(=S)Nc1sc2c(c1C#N)CCCCC2`: the AC50 under setting [2] was 29.1 µM [rising, single point].
On to `C=CCN1CCN(C(c2ccc(Cl)cc2)c2nnnn2CCc2ccc(OC)c(OC)c2)CC1` (stereo not given), for which the AC50 is, setting by setting: under setting [1], 0.366 µM [falling, partial curve, poor fit]; under setting [2], 0.651 µM [falling, single point].
On to `O=C(Cn1cnc2cc([N+](=O)[O-])ccc2c1=O)Nc1ccc(N2CCOCC2)cc1`, for which the cell number change is 2.76%. In addition, the concentration at half-maximal activity (AC50) under setting [2] was 0.291 µM [rising, full curve, poor fit].
Take `CCOCCn1c(C(C)C)nc2ccccc21`: the AC50 under setting [2] is 6.51 µM [falling, single point].
`Cc1ccc2c(c1)C(=O)C(=O)N2CC(=O)OC(C)C`: the cell number change amounted to 32.1%. For the same molecule, the AC50 under setting [1] is 0.184 µM [rising, full curve, poor fit]. Besides, the AC50 under setting [2] was 29.1 µM [rising, partial curve, poor fit].
`O=C(COC(=O)c1ccc(F)cc1)NCc1ccc(F)cc1`: the cell number change is -23.9%. Moreover, the AC50 under setting [2] is 0.651 µM [falling, full curve, poor fit].
Turning to `COc1cccc(CNC(=O)COC(=O)CCS(=O)(=O)c2ccc(C)cc2)c1`, the cell number change is -21.7%. Further, under setting [2], the AC50 is 2.91 µM [rising, single point].
For the molecule `CCOP(=O)(OCC)C(NC(=O)c1cccs1)C(F)(F)F` (stereo not given), the cell number change is 72.3%. Under setting [1], the AC50 is 29.1 µM [rising, single point]. Also, the AC50 under setting [2] was 29.1 µM [rising, single point].
As to `Cn1c(=O)cc(SCC(=O)NCCC2=CCCCC2)c2ccccc21`, the cell number change turned out to be 8.56%. Also, the AC50 under setting [1] was 0.651 µM [rising, partial curve, poor fit]. Moreover, the AC50 under setting [2] is 0.461 µM [rising, partial curve, poor fit].
With `CCOc1ccc(NC(=O)CSc2n[nH]c(=O)n2-c2ccccc2)cc1`, the cell number change was determined as 7.83%.
In the case of `Cc1onc(-c2ccccc2)c1C(=O)N/N=C/c1ccc([N+](=O)[O-])s1`, the cell number change came to 8.61%. In addition, under setting [1], the AC50 was 0.082 µM [rising, full curve, poor fit]. Also, under setting [2], the AC50 was 0.092 µM [rising, full curve, poor fit].
On to `C=CCNC(=O)c1ccc(Sc2ccccc2)c([N+](=O)[O-])c1`, for which the cell number change is -1.67%. For the same molecule, the AC50 under setting [2] was 0.259 µM [rising, full curve].
With `CCCNC(=O)C(Cc1ccc(Cl)cc1)NC(=O)c1ccc(-c2ccccc2)cc1` (stereo not given), the cell number change is -64.3%. The AC50 under setting [1] is 7.31 µM [falling, partial curve]. Besides, the AC50 under setting [2] is 0.00461 µM [rising, full curve, poor fit].
On to `CCc1cccc2c(C(=S)N3CCOCC3)c[nH]c12`, for which the cell number change was -13.9%. For the same molecule, the AC50 under setting [2] is 3.26 µM [falling, single point].
Regarding `Cc1nnc(NC(=O)c2sc3nc(-c4cccs4)cc(C(F)(F)F)c3c2N)s1`, the AC50 under setting [2] was 10.3 µM [falling, partial curve].
In the case of `COc1ccc2[nH]c3c(=O)n(/N=C/[C@H]4C(C)C=C(C)CC4C)c(=O)[nH]c3c2c1` (stereo not given in full), the cell number change is -69.4%. Further, the AC50 under setting [1] was 20.6 µM [falling, single point]. Besides, the AC50 under setting [2] was 11.6 µM [falling, partial curve, poor fit].
With `CCOC(=O)c1cnn(-c2ccccc2)c1N`, under setting [1], the AC50 is 2.06 µM [rising, partial curve].
Consider `CC(C)C[C@H](NC(=O)N1CCn2c1nc1ccccc12)C(=O)NCCc1ccccc1`, for which the cell number change was -2.02%. For the same molecule, the AC50 under setting [2] was 0.259 µM [falling, full curve].
Consider `Cn1c(=O)c2c(SCC(=O)NCC3CCCO3)nc(-c3ccccc3Cl)nc2n(C)c1=O` (stereo not given), for which the cell number change was -33.4%. In addition, the AC50 under setting [1] was 6.31 µM [falling, full curve, poor fit]. Besides, the AC50 under setting [2] is 6.31 µM [falling, full curve].
With `CC(C)CN(CC(C)C)C(=O)CCCC(=O)N(CC(C)C)CC(C)C`, the cell number change was -11.9%. For the same molecule, the AC50 under setting [2] is 0.259 µM [falling, full curve, poor fit].
For `CCOC(=O)C1(CCCc2ccccc2)CCN(S(=O)(=O)N(C)C)CC1`, the cell number change was -22.3%. The half-maximal activity concentration (AC50) under setting [2] is 29.1 µM [falling, single point].
As for `CC(=O)c1ccc2c(c1)c1ccccc1n2CC(C)C`, the AC50 under setting [2] is 29.1 µM [rising, single point].
For the molecule `CC(C)CC(=O)Nc1ccc(C(=O)Cn2c(=O)oc3ccccc32)cc1`, the cell number change was 4.19%. Besides, under setting [1], the AC50 was 0.00411 µM [rising, full curve, poor fit].
Turning to `CN(C)c1nc(Nc2ccc(F)cc2)nc(Oc2ccc(F)cc2)n1`, the cell number change was determined as 23%.
On to `CCC(NC(=O)C1C2C=CC(C2)C1C(=O)O)c1ccc(C)cc1` (stereo not given), for which the cell number change amounted to 14.8%. In addition, the AC50 under setting [2] was 6.51 µM [rising, partial curve, poor fit].
With `CCc1ccccc1NC(=O)c1cc(C)no1`, the cell number change was -25.2%.
In the case of `COC(=O)c1nc2ccccn2c1F`, the cell number change is -23.4%. Moreover, the AC50 under setting [2] is 32.6 µM [falling, single point].
With `O=C1/C(=C\c2ccc(O)c(O)c2)SC(=S)N1Cc1ccccc1`, the cell number change was -208%. Under setting [1], the AC50 was 14.6 µM [falling, partial curve].
Take `COc1ccc(OC)c(NC(=O)COC(=O)Cn2nnc(-c3ccccc3)n2)c1`: the cell number change was 2.32%. Besides, under setting [2], the AC50 is 14.6 µM [falling, partial curve, poor fit].
For `Cc1ccccc1C(OCCN(C(C)C)C(C)C)c1ccccc1` (stereo not given), the cell number change was -8.39%.
Take `CCn1cc(C(=O)N2CC=C(c3ccccc3)CC2)c(=O)c2ccc(C)nc21`: the cell number change is 3.2%. For the same molecule, the AC50 under setting [2] was 0.116 µM [rising, partial curve, poor fit].
For the molecule `Cc1nc2cc(N=NC3=C(O)CCCC3=O)ccc2s1`, the cell number change came to 5.63%. The AC50 under setting [2] was 4.11 µM [rising, full curve, poor fit].
Take `COc1ccc(Oc2nc(SC)nc3ccccc23)cc1`: the cell number change turned out to be 85.5%. Further, under setting [1], the AC50 was 23.1 µM [rising, single point]. Further, the AC50 under setting [2] is 18.4 µM [rising, single point].
As to `CC(C)N(CCO)Cc1nc(C(c2ccccc2)c2ccccc2)no1`, the cell number change is -21%. Besides, the concentration at half-maximal activity (AC50) under setting [2] was 29.1 µM [falling, single point].
`O=C(Cc1ccccc1)N[C@@H](Cc1ccccc1)c1nc2ccccc2[nH]1`: the cell number change is -14.3%.
Take `CC(C)NC(=O)/C(=N\O)c1ccccc1`: the cell number change was -48%. Also, the concentration at half-maximal activity (AC50) under setting [1] is 14.6 µM [falling, partial curve, poor fit].
Take `CN(C)c1ccc(Cl)cc1N`: the cell number change is 17.1%. Moreover, the AC50 under setting [1] is 1.16 µM [rising, single point]. Moreover, the AC50 under setting [2] was 3.26 µM [rising, single point].
In the case of `COc1ccc(N2CCN(C(=O)c3ccc(COc4ccc5c(C)cc(=O)oc5c4)cc3)CC2)cc1`, the cell number change is -13.6%. Moreover, the AC50 under setting [2] is 5.8 µM [rising, full curve].
`CC(=O)Nc1ccc(S(=O)(=O)NCc2ccc(C(=O)NCCN3CCCCCC3)cc2)cc1`: the cell number change was -27.6%. Besides, the AC50 under setting [2] was 32.6 µM [falling, single point].
With `CN(C)c1ccc(C(CNC(=O)c2ccc(C#N)cc2)c2c[nH]c3ccccc23)cc1` (stereo not given), the cell number change stood at 1.24%.
For the molecule `Cn1nnnc1SCCNCC#Cc1ccccc1`, the cell number change is 63.4%. The AC50 under setting [1] is 6.51 µM [rising, partial curve]. The AC50 under setting [2] was 5.17 µM [rising, partial curve].
Consider `O=C(NN1C(=O)NC2(CCCCC2)C1=O)c1ccc(Cl)s1`, for which the cell number change was -40.8%. Further, the AC50 under setting [1] was 0.00461 µM [falling, full curve, poor fit]. For the same molecule, the AC50 under setting [2] is 0.00461 µM [falling, full curve, poor fit].
